Laboratory results reported in the supplement of paper PMC9233669.
This sample is rich in variants without activity.

Assays:
biotinyl-Leu-oxazolone = assay: self-aminoacylation, catalytic enhancement (BLO) (fold over background); higher = more active; k-Seq, kA / k0A0; sequences stand for … in GGGAAUGGAUCCACAUCUACGAAUUC…UUCACUGCAGACUUGACGAAGCUG
Outline: (§1)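 Each biotinyl-aminoacyl-oxazolone, at 2–1250 μM, was incubated with mutagenized RNA pools (0.43 μM) carrying a 21-nt variable region. The 50 μL reactions contained HEPES/NaCl/KCl/MgCl2/CaCl2 buffer with 5% acetonitrile at pH 6.9–7.0 and ran for 90 minutes at room temperature. After streptavidin capture, RNA was measured by qPCR in triplicate and by Illumina sequencing, and catalytic enhancement was calculated as median kA over the uncatalyzed rate from a pseudo-first-order fit of per-sequence fraction reacted.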

biotinyl-Met-oxazolone = assay: self-aminoacylation, catalytic enhancement (BMO) (fold over background); higher = more active; k-Seq, kA / k0A0; sequences stand for … in GGGAAUGGAUCCACAUCUACGAAUUC…UUCACUGCAGACUUGACGAAGCUG
Outline: as §1

biotinyl-Ile-oxazolone = assay: self-aminoacylation, catalytic enhancement (BIO) (fold over background); higher = more active; k-Seq, kA / k0A0; sequences stand for … in GGGAAUGGAUCCACAUCUACGAAUUC…UUCACUGCAGACUUGACGAAGCUG
Outline: as §1

biotinyl-Val-oxazolone = assay: self-aminoacylation, catalytic enhancement (BVO) (fold over background); higher = more active; k-Seq, kA / k0A0; sequences stand for … in GGGAAUGGAUCCACAUCUACGAAUUC…UUCACUGCAGACUUGACGAAGCUG
Outline: as §1

Sequence | self-aminoacylation (biotinyl-Leu-oxazolone) | self-aminoacylation (biotinyl-Met-oxazolone) | self-aminoacylation (biotinyl-Ile-oxazolone) | self-aminoacylation (biotinyl-Val-oxazolone)
AAGUGUGCUAAUAGUCGAAAG [Fam3.1 aminoacylation ribozyme variant] | 1.48 | 1.75 | 1.31 | 1.14
AAGUUGGCUAAUAGUCGCAAA [Fam3.1 aminoacylation ribozyme variant] | 1.75 | 1.45 | 1.99 | 1.25
AAGUUUCCUAAUAGUCGCACG [Fam3.1 aminoacylation ribozyme variant] | 1.7 | 1.49 | 1.57 | 1.74
AAGUUUGCAAAUAGUCGCAAG [Fam3.1 aminoacylation ribozyme variant] | 0.665 | 0.734 | 0.763 | 0.752
AAGUUUGCUAAUAUUGGCAAG [Fam3.1 aminoacylation ribozyme variant] | 0.847 | 0.894 | 0.773 | 0.784
AAGUUUGGUAAUAGUCGCAAC [Fam3.1 aminoacylation ribozyme variant] | 1.16 | 1.19 | 1.48 | 1.47
AAUCACCUAGGACAUCGGGUG [Fam2.2 aminoacylation ribozyme variant] | 3.27 | 4.09 | 3.91 | 3.32
ACUGCCCUGGUCAUCGAGUGA [Fam2.1 aminoacylation ribozyme variant] | 34.1 | 36 | 13.4 | 14.9
AGGUUUGCUAAUAGUCACAAG [Fam3.1 aminoacylation ribozyme variant] | 0.985 | 1.12 | 1.15 | 1.12
AGUCACCAAGGUCAUCGGGUG [Fam2.2 aminoacylation ribozyme variant] | 7.67 | 6.59 | 4.38 | 4.7
AUUAACCUAGGUCACCGGGUG [Fam2.2 aminoacylation ribozyme variant] | 4.52 | 4.09 | 3.19 | 3.13
AUUACCAUGGUCAUCGAGAGA [Fam2.1 aminoacylation ribozyme variant] | 0.937 | 0.859 | 0.797 | 0.864
AUUACCCUGGUCAACGGGUGA [Fam2.1 aminoacylation ribozyme variant] | 9.68 | 9.43 | 4.83 | 4.61
AUUACCCUGGUCACCGAGUUA [Fam2.1 aminoacylation ribozyme variant] | 1.26 | 1.52 | 1.64 | 1.75
AUUACUCUGGUCAACGAGUGA [Fam2.1 aminoacylation ribozyme variant] | 5.72 | 5 | 3.12 | 2.76
AUUCACCGAGGUCGUCGGGUG [Fam2.2 aminoacylation ribozyme variant] | 3.03 | 3.16 | 2.55 | 2.55
AUUCACCUAGGCCAUCGGGUA [Fam2.2 aminoacylation ribozyme variant] | 3.81 | 3.31 | 2.42 | 2.21
AUUCACCUAGGCUAUCGGGUG [Fam2.2 aminoacylation ribozyme variant] | 4.84 | 3.76 | 2.43 | 3.06
AUUCACCUAGGUCAACGGGUC [Fam2.2 aminoacylation ribozyme variant] | 0.807 | 0.915 | 0.899 | 1.07
AUUCACCUAUGUGAUCGGGUG [Fam2.2 aminoacylation ribozyme variant] | 2.74 | 2.14 | 1.69 | 1.99
AUUCACCUUGGUCAUCGGUUG [Fam2.2 aminoacylation ribozyme variant] | 0.855 | 0.844 | 0.9 | 1.06
AUUCCCCUUGUCAUCGAGUGA [Fam2.1 aminoacylation ribozyme variant] | 11.4 | 11.1 | 6.44 | 7.45
AUUUCCCUGGUCAUCGAGUGG [Fam2.1 aminoacylation ribozyme variant] | 8.26 | 7.95 | 3.66 | 3.99
CAACACUUUAAGCAAUCGGUC [Fam1B.1 aminoacylation ribozyme variant] | 0.854 | 0.762 | 0.96 | 0.846
CAACUUCAAACAAUCCGUCUG [Fam1A.1 aminoacylation ribozyme variant] | 0.998 | 1.12 | 1.3 | 1.1
CAGUUUGCUAAUAGCCGCAAG [Fam3.1 aminoacylation ribozyme variant] | 1.69 | 1.26 | 1.86 | 1.46
CAGUUUGGUAAUAGUCGCAAG [Fam3.1 aminoacylation ribozyme variant] | 1.73 | 1.73 | 1.85 | 1.67
CCAAACUUCAAGCAAUCGGCC [Fam1B.1 aminoacylation ribozyme variant] | 3.45 | 2.21 | 2.38 | 3.04
